Record: PubChem BioAssay AID652272 (Drosophila RNAi Screening Center, 2013)
Purpose: 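Genome-wide knock-down search for components of Hedgehog signalling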 (primary screen). System: Drosophila clone 8 (Cl8) cells. Reagent: long dsRNA against Drosophila genes. Measurement: 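Plate reader light from a firefly reporter under a ptc promoter fragment that responds to Hedgehog, with Renilla light as transfection reference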. Scale: firefly Hh reporter signal: higher = more ptc reporter light; Renilla reference signal: higher = more Renilla control light. Call rule: 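Hit when the z-score averaged over two replicates is under -2 or over +3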. Calls: active = hit: reporter lowered or raised; inactive = not a hit.
The screen tested about 21,000 reagents; shown is an unselected part of those with a known target gene and a result. In the full data, 503 (2.4%) were called active. 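Raw plate light values, not normalised; calls rest on replicate z-scores that were not deposited; hits include reporter decreases as well as increases.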 Unmarked entries are inactive. A plus sign joins genes that one reagent is predicted to hit. Not given: the amount of reagent, the time to read-out.

| gene knocked down | DRSC id | firefly Hh reporter signal, replicate 1 | firefly Hh reporter signal, replicate 2 | firefly Hh reporter signal, replicate 3 | Renilla reference signal, replicate 1 | Renilla reference signal, replicate 2 |
| --- | --- | --- | --- | --- | --- | --- |
| Zasp52 | DRSC06269 | 71000 | 35817 | – | 971 | 1996 |
| Zasp52 | DRSC07121 | 86220 | 58726 | – | 1788 | 4141 |
| dx | DRSC18767 | 71301 | 2.14e5 | – | 2395 | 7379 |
| lncRNA:CR43434 | DRSC13766 | 40250 | 1.42e5 | – | 10541 | 3896 |
| Rab21 | DRSC20968 | 1.73e5 | 2.01e5 | – | 6645 | 10614 |
| Z600 | DRSC11317 | 1.50e5 | – | – | 5398 | 3751 |
| foi | DRSC10719 | 58684 | 50918 | – | 7607 | 3306 |
| Galphaf | DRSC11171 | 1.20e5 | – | – | 2305 | 5733 |
| ac | DRSC18734 | 33728 | 79378 | – | 839 | 3419 |
| CG2533 | DRSC19855 | 1.26e5 | 3.85e5 | – | 3046 | 15635 |
| CG17816 | DRSC15277 | 79781 | 6.26e5 | 1.42e5 | 2717 | 4491 |
| inaF-B + inaF-D + inaF-C + 1 more | DRSC20342 | 70275 | 1.46e5 | – | 1201 | 6848 |
| Ilp6 | DRSC17906 | 74365 | 2.50e5 | – | 2128 | 9344 |
| msl-3 | DRSC11371 | 41644 | 67280 | – | 87 | 4193 |
| CG5953 | DRSC01546 | 81928 | 2.09e5 | – | 2642 | 9161 |
| CG5953 | DRSC02914 | 75308 | 26325 | – | 1603 | 1882 |
| CG13071 | DRSC09954 | 1.12e5 | – | – | 4523 | 3267 |
| CG13070 | DRSC09953 | 1.05e5 | – | – | 4325 | 3228 |
| Bcs1 | DRSC02789 | 66893 | 54645 | – | 1768 | 4401 |
| CG33978 | DRSC17106 | 4.54e5 | 1.85e5 | – | 21096 | 3848 |
| CG17127 | DRSC02581 | 1.37e5 | 65625 | – | 3452 | 6528 |
| CG10588 | DRSC11628 | 1.17e5 | 1.17e5 | – | 3954 | 3307 |
| Gr98a | DRSC14719 | 4.31e5 | 61617 | – | 2427 | 2427 |

Limited to “firefly Hh reporter signal, replicate 1” (3 entries from above):
inaF-B + inaF-D + inaF-C + 1 more [DRSC20342]	70275
Ilp6 [DRSC17906]	74365
msl-3 [DRSC11371]	41644
